Laboratory results: PMC7819943, “Rice protein-binding microarrays: a tool to detect cis-acting elements near promoter regions in rice”
Some of the results follow.

The chains behind the UniProt entries cited, without tags or fusion partners.
UniProt Q0JBA9, entry or part of it: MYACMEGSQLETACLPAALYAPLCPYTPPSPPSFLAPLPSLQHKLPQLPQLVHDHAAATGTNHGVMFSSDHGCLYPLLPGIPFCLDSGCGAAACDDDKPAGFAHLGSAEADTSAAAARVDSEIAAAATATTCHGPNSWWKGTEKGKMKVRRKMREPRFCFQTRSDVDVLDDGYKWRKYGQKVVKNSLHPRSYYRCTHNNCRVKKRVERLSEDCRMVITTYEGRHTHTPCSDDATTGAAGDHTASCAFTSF

Target: OsWRKY34 (Oryza sativa, UniProt Q0JBA9 1-250)
Assay: protein-binding microarray (RPBM); PBS, 2% BSA, 51.3 ng/ul salmon testes DNA, 50 uM zinc acetate, 200 nM TF, 25 C, 1 h; high values mean tight binding
Details: protein: recombinant; tags: N-terminal polyhistidine and DsRed monomer fusion (pET32a); label: CyDye5-dUTP incorporated in the synthesized complementary strand; 3' TTTTT single-stranded linker to array surface; dsDNA, one strand shown
Summary of the method: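 Ni–NTA purification followed expression in E. coli BL21-CodonPlus of transcription factors fused N-terminally to a polyhistidine tag and DsRed. At 200 nM in PBS with 2% BSA, salmon testes DNA and 50 µM zinc acetate, the protein was incubated for 1 h at 25 °C with a custom Agilent array that had been primer-extended with Cy5-dUTP and blocked with 2% BSA. After washing, the array was read on an Axon 4000B scanner. The binding signal is per-feature fluorescence intensity in arbitrary units.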

| Sequence | binding signal |
| --- | --- |
| GTTCGTTACTTATGTTATGTTGCAGGTTGTTCGTCAGATACGGAGTCACCTAGTGCAG | 10700 fluorescence intensity (a.u.) |
| CCTTGCTTTTCCAACTTCTTGTCCATCACCTCCAGTTTCTCGGAGTCACCTAGTGCAG | 12700 fluorescence intensity (a.u.) |
| ACGATCTCCTCTCTCGGCGCCGCGGCCATCAATCCCGCGGCGGAGTCACCTAGTGCAG | 8860 fluorescence intensity (a.u.) |
| TTTTATTTTGCTAAAATTGATCCACATCTAGATTTTTATTCGGAGTCACCTAGTGCAG | 8450 fluorescence intensity (a.u.) |
| GAAGTTTGCCTTGTCGGCCGTCGTGTCCTTCTGCCGCTAACGGAGTCACCTAGTGCAG | 10900 fluorescence intensity (a.u.) |
| TAGGTTCTAGATTGTTTTTTCGCTGTTTTTTTTTTATTTTCGGAGTCACCTAGTGCAG | 13300 fluorescence intensity (a.u.) |
| TGCTTGAAGCTCAATGGTCTGGTCTGCAGTTGGCTATCCACGGAGTCACCTAGTGCAG | 9430 fluorescence intensity (a.u.) |
| CGTTTTATTCCGCGTCTTTCCGGTCTCCTTTCCGAGTCGCCGGAGTCACCTAGTGCAG | 8450 fluorescence intensity (a.u.) |
| AACCACGATAAATTCACCGTCCCTCAACTACTCTCAGATACGGAGTCACCTAGTGCAG | 8790 fluorescence intensity (a.u.) |
| TTCCTTCTGGCTATTGTTCTTTTTATGTTTGTTGGTTGTTCGGAGTCACCTAGTGCAG | 9270 fluorescence intensity (a.u.) |
| TTCTTTTTTCACCCTTTTGAGGTATATTTTTGCTCTTACACGGAGTCACCTAGTGCAG | 8860 fluorescence intensity (a.u.) |
| TCCTGGGGTTGGTTGGTTGGTTGGGTTATATATCTACCAACGGAGTCACCTAGTGCAG | 14200 fluorescence intensity (a.u.) |
| CACCCATCTTCTTCTGTAATTCAAGTTTCGACTGTGCATTCGGAGTCACCTAGTGCAG | 10400 fluorescence intensity (a.u.) |
| TATATATTATACCATTAATGACTGATCCTACCCTCTCATACGGAGTCACCTAGTGCAG | 10700 fluorescence intensity (a.u.) |
| GAATCACAACTGAAACGTACTCCTACCTTTCAACTTTCATCGGAGTCACCTAGTGCAG | 8410 fluorescence intensity (a.u.) |
| AATATCTTGGCCGAATTTTTTGGTTTTTCTCAAATTTTTACGGAGTCACCTAGTGCAG | 8090 fluorescence intensity (a.u.) |
| ATACTCCTTTTTCTCATGCATAATGCTAATTGTTCGTACACGGAGTCACCTAGTGCAG | 8330 fluorescence intensity (a.u.) |
| TCCACTCCGCTCAACCTTCGCGATTGATTCTTGGATTTCTCGGAGTCACCTAGTGCAG | 14400 fluorescence intensity (a.u.) |
| ACTGTGTTACCTAACAAACAATGTTTTGAGCACCAATCACCGGAGTCACCTAGTGCAG | 8330 fluorescence intensity (a.u.) |
| TCACTAGGTGTTGTTCTTTTTCAGATTATTCATCAGATTACGGAGTCACCTAGTGCAG | 9520 fluorescence intensity (a.u.) |
| AGTGAGAAAATAAATAGTGTCCGTACCGGTTCTTTTTCTTCGGAGTCACCTAGTGCAG | 8800 fluorescence intensity (a.u.) |

| Sequence | binding signal |
| --- | --- |
| AATTTCCTTGTAATTGTTTATATGTCCCGCATTTCAAATACGGAGTCACCTAGTGCAG | 8090 fluorescence intensity (a.u.) |
| ATACCGTTTTATTTTGTAATTTACTCTCATCTTTATATAGCGGAGTCACCTAGTGCAG | 8790 fluorescence intensity (a.u.) |
| GATTCTCACCAGTTGGCTACTCGCTATTTGCTTATTAGAACGGAGTCACCTAGTGCAG | 8060 fluorescence intensity (a.u.) |
| ATTTGTATGGGTGCTAGCCGTGTAATTATGCGGTCCACTACGGAGTCACCTAGTGCAG | 10000 fluorescence intensity (a.u.) |
| GCGCGAAAAAGTCAACAGTGCCACTCATCACCCGACACACCGGAGTCACCTAGTGCAG | 8920 fluorescence intensity (a.u.) |
| AATTCCGGGTTTGGCGTGGGTTGCTCTGTGGATACCCATTCGGAGTCACCTAGTGCAG | 8210 fluorescence intensity (a.u.) |
| TGCTTAACACCACGCTTCTGGAAATCTGGATAAACATTTACGGAGTCACCTAGTGCAG | 8290 fluorescence intensity (a.u.) |
| GATAGGAGTATATGGCATTTCACGCTCAGTTAGCATTCACCGGAGTCACCTAGTGCAG | 11400 fluorescence intensity (a.u.) |
| GCTCGTATAATATGTTTGATATGTCATTTTAAAGTTTAATCGGAGTCACCTAGTGCAG | 9160 fluorescence intensity (a.u.) |
| GATGTTTATAAATAGCTTATAGTTTGCTATCTACTGTTTTCGGAGTCACCTAGTGCAG | 9800 fluorescence intensity (a.u.) |
| CGTCCGGTCGCATCCCCTGGCCTGGCCGTCGCCGGCCCGCCGGAGTCACCTAGTGCAG | 9050 fluorescence intensity (a.u.) |
| CAAATGAACCACTTCTTTATATTCGATTCCTCATTGCTTTCGGAGTCACCTAGTGCAG | 8390 fluorescence intensity (a.u.) |
| CCCTCGTTCTCGTTCTTATCTCCAACACCTCTACTACTACCGGAGTCACCTAGTGCAG | 8990 fluorescence intensity (a.u.) |
| ACCTTATTGATCGTCCATGTTTTCCGGTGAATTAAACCCACGGAGTCACCTAGTGCAG | 8720 fluorescence intensity (a.u.) |
| ACTTTTTCTGTGACAGACTGATATATTTATTTCTTAATTCCGGAGTCACCTAGTGCAG | 12400 fluorescence intensity (a.u.) |
| ATTGGTAGCTACGAGCCTACGACCTCGCTGCCTCGTATCGCGGAGTCACCTAGTGCAG | 8820 fluorescence intensity (a.u.) |
| GTTCTTTTTTACGTAAATTGGTTGAAGTCTTCAAAATCTCCGGAGTCACCTAGTGCAG | 9010 fluorescence intensity (a.u.) |
| ACAGGAGGTGTACCATAGTTCGTGTTTTTTTCTAGTTTACCGGAGTCACCTAGTGCAG | 11400 fluorescence intensity (a.u.) |
| GAATTATTTTGATATAGATGTATTTAGCGTACCATTTTACCGGAGTCACCTAGTGCAG | 9400 fluorescence intensity (a.u.) |
| GTTTTCAGGCTTTTTCAGGTTTCTGTCCATTGTTTTTCTACGGAGTCACCTAGTGCAG | 11100 fluorescence intensity (a.u.) |
| TCTGTCTCCACATGATACCATACGCATGGCACACTTGATACGGAGTCACCTAGTGCAG | 8790 fluorescence intensity (a.u.) |

Reprinted at random: 2 entries already listed

| Sequence | binding signal |
| --- | --- |
| ACTTTTTCTGTGACAGACTGATATATTTATTTCTTAATTCCGGAGTCACCTAGTGCAG | 12400 fluorescence intensity (a.u.) |
| ATTTGTATGGGTGCTAGCCGTGTAATTATGCGGTCCACTACGGAGTCACCTAGTGCAG | 10000 fluorescence intensity (a.u.) |
